Measurements reported in the supplement of paper PMC6411743.
± gives the standard deviation of the averaged measurements. The entries are a selection whose mix differs from that of the whole data set.

The chains behind the UniProt entries cited, without tags or fusion partners. Where a name states a change or a piece, a line headed by the entry shows the natural chain unless it says otherwise.
UniProt Q96RL7: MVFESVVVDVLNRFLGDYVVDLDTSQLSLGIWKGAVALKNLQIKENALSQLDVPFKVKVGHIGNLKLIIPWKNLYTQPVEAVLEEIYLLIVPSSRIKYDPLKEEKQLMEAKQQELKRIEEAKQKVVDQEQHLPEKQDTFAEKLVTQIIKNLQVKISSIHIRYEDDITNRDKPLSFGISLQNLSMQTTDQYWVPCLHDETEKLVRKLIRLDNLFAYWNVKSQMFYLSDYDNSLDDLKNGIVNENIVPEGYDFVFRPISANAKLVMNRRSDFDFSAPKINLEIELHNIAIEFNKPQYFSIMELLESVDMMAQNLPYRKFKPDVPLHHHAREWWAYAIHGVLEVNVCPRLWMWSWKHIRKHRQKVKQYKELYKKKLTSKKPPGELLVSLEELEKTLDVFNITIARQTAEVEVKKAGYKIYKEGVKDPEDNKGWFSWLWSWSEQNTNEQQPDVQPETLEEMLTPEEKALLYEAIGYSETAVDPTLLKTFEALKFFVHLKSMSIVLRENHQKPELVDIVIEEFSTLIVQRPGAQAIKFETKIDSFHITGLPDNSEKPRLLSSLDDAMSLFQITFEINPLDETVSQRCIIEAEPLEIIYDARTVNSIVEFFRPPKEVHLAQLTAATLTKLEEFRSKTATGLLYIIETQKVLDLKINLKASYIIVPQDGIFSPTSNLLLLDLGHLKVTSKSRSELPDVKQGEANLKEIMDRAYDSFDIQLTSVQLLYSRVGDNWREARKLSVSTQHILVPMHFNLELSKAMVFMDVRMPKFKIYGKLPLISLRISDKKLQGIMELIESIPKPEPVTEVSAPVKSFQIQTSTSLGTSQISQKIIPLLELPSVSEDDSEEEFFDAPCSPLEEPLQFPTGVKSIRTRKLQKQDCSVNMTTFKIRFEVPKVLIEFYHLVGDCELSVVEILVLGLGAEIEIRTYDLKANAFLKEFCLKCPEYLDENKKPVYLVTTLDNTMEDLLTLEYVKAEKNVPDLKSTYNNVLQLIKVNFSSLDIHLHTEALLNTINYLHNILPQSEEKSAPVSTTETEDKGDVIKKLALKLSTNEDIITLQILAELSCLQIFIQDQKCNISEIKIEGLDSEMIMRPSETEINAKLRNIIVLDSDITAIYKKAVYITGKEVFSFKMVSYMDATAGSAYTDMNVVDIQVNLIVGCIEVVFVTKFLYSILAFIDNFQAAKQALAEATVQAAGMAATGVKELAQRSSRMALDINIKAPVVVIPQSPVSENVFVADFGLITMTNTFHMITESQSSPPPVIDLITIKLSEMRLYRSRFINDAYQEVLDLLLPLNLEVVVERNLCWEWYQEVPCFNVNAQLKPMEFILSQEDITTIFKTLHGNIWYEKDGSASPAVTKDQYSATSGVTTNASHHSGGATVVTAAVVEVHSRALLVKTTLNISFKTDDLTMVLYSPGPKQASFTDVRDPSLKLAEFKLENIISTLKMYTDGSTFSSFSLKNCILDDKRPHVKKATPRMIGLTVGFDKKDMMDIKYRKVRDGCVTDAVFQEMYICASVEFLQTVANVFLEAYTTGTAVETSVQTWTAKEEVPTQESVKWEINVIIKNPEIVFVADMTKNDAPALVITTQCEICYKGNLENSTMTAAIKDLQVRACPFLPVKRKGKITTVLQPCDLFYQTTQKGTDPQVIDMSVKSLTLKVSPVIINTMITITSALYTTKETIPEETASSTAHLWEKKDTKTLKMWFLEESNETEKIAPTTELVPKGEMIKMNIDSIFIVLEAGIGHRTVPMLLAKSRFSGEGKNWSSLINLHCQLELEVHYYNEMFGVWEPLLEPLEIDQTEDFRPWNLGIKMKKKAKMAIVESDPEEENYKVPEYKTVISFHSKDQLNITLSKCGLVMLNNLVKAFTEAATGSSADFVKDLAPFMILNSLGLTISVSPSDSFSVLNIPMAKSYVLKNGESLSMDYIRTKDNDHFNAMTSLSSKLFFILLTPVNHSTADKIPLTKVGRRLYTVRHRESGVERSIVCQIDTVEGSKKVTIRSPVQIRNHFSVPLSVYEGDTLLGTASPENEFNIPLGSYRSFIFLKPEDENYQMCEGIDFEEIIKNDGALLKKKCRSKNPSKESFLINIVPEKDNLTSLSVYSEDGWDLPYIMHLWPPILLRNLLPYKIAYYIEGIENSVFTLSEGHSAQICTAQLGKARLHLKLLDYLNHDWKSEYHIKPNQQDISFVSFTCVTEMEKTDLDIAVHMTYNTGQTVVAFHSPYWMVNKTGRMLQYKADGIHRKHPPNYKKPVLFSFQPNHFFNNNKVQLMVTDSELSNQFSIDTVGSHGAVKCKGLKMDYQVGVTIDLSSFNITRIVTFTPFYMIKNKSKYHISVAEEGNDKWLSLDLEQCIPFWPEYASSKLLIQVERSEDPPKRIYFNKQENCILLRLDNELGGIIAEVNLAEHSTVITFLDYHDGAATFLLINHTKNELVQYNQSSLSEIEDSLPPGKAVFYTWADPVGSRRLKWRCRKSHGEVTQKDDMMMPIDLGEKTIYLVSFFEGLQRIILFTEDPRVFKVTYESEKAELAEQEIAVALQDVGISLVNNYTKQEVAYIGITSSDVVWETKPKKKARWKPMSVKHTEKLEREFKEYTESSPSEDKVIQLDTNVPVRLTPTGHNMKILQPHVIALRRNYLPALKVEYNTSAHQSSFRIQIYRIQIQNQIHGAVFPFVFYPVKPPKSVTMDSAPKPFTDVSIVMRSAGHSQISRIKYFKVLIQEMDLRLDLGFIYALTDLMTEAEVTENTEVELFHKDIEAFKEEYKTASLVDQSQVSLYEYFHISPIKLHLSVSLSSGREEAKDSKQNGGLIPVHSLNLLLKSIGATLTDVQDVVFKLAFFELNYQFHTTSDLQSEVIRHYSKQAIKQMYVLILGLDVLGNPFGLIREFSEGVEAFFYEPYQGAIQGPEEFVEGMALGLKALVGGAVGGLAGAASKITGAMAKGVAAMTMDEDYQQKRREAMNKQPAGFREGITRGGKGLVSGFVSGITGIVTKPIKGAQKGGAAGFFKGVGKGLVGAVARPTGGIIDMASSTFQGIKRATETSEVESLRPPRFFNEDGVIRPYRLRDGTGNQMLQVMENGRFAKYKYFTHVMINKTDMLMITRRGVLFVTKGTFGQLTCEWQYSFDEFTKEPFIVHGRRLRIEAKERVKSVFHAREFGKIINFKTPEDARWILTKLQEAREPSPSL
UniProt Q99961: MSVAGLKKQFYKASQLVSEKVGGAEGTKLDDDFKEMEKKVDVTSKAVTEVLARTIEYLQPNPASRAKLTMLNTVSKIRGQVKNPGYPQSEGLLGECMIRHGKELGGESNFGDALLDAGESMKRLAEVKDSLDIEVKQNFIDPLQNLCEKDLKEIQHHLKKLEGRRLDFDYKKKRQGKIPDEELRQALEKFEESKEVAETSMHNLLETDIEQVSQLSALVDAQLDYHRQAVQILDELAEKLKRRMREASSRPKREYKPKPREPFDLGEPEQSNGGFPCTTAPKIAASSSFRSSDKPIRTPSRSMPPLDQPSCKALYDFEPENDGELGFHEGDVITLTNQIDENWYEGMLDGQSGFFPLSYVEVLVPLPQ
UniProt Q99943: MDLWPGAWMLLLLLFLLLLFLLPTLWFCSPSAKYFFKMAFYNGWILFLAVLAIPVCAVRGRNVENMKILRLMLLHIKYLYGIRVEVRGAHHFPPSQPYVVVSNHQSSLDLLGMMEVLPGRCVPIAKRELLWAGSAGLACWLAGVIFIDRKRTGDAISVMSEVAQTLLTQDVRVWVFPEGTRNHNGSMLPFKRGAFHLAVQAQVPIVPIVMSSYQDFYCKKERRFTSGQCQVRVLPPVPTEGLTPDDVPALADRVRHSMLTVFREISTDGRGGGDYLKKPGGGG
UniProt Q9BTZ2: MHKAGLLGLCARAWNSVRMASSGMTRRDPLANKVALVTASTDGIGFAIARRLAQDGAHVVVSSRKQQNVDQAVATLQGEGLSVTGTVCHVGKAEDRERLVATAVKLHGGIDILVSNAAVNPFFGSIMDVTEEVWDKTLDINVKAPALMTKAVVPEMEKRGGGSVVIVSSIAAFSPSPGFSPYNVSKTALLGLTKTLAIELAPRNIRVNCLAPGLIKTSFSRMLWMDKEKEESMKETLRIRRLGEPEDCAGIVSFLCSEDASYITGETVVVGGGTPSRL
UniProt Q9BX95: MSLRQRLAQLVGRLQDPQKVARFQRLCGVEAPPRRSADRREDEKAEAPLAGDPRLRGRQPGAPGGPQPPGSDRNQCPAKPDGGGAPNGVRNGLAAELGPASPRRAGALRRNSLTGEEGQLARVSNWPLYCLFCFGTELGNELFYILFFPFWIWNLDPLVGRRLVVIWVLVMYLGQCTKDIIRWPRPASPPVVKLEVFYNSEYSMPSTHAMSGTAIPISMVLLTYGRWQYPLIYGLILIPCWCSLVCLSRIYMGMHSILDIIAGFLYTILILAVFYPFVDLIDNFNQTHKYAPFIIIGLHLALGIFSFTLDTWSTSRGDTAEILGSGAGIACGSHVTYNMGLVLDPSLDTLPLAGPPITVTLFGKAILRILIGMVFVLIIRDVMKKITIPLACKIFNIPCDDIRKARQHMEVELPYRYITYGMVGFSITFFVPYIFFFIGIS
UniProt Q99496: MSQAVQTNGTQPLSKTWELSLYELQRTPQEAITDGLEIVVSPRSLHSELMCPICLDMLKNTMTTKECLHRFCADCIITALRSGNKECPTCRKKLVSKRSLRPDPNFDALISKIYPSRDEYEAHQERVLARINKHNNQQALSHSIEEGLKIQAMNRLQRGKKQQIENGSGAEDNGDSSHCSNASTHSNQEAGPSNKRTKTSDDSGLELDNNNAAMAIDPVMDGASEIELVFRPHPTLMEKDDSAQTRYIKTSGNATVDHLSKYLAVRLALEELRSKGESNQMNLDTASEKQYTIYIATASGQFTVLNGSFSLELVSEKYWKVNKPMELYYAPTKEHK
UniProt Q99442: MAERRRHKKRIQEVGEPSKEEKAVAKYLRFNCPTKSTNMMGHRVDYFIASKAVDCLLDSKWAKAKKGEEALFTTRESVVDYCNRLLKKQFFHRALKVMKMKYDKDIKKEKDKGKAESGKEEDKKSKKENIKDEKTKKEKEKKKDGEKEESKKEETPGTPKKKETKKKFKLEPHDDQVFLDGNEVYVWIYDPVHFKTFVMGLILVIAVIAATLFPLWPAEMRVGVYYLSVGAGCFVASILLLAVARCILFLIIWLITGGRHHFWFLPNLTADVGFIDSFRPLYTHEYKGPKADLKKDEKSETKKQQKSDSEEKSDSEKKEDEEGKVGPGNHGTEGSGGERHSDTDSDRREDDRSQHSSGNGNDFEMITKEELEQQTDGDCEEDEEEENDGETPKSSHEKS
UniProt Q9BYE7: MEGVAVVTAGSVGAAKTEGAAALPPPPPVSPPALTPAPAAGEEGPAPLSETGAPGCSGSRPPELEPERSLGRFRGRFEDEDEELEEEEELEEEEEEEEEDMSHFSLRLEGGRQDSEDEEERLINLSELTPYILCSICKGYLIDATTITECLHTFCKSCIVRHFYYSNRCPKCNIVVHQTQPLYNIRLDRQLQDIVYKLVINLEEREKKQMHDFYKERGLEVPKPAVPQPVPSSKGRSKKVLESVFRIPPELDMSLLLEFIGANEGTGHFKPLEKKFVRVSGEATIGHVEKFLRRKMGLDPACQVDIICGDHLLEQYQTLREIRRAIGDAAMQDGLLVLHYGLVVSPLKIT
UniProt Q99828: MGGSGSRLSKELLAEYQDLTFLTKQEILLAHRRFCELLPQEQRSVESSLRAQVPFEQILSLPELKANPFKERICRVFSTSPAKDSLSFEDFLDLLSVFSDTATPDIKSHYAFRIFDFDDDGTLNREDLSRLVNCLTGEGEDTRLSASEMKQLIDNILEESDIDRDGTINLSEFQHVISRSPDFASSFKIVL
UniProt Q9BQI3, whole entry: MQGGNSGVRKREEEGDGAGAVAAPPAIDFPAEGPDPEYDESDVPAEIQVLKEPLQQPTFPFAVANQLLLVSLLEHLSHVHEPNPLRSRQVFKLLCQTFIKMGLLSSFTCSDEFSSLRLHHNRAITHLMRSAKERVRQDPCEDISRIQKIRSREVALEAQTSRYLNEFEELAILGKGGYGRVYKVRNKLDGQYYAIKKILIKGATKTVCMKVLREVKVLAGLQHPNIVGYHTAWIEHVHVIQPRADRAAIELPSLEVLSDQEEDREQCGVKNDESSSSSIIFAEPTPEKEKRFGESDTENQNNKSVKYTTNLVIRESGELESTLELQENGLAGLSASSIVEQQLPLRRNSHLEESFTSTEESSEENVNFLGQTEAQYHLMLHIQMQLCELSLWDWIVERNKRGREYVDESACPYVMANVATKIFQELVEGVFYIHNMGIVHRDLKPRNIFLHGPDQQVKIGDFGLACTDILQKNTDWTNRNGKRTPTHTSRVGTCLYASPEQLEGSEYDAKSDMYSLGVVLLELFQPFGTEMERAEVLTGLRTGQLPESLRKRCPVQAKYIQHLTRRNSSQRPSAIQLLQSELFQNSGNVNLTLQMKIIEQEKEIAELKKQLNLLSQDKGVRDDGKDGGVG

Compound: Nc1ncnc2c1ncn2[C@@H]1O[C@H](COP(=O)(O)OP(=O)(O)NP(=O)(O)O)[C@@H](O)[C@H]1O [adenylyl imidodiphosphate]
Assay: NP40-soluble protein abundance relative to vehicle (solubility fold change) (ratio); higher = more soluble protein in presence of AMP-PNP
Summary of the method: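 Data come from three independent experiments in which Dounce-homogenised Jurkat crude lysate was treated at eight concentrations from 0.1 to 10 mM. Treatment ran 10 min at room temperature and then 3 min at 37 °C, after which 0.8% NP40 and benzonase were added for 60 min at 4 °C before ultracentrifugation. The supernatant underwent TMT labelling and LC-MS/MS, and vsn-normalised intensities were expressed as fold change against the detergent-processed vehicle in each replicate.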

Target | NP40-soluble protein abundance (concentration: 1mM) | NP40-soluble protein abundance (concentration: 2mM) | NP40-soluble protein abundance (concentration: 4mM) | NP40-soluble protein abundance (concentration: 6mM) | NP40-soluble protein abundance (concentration: 8mM) | NP40-soluble protein abundance (concentration: 10mM)
UniProt Q96RL7 and related entries | 0.982 ± 0.039 | 0.918 ± 0.098 | 0.969 ± 0.012 | 0.916 ± 0.024 | 0.949 ± 0.022 | 0.8993 ± 0.0069
SH3GL1 (UniProt Q99961) | 1.01 ± 0.018 | 1.05 ± 0.044 | 0.995 ± 0.017 | 0.987 ± 0.033 | 0.961 ± 0.016 | 0.99 ± 0.013
AGPAT1 (UniProt Q99943) | 1.02 ± 0.035 | 0.977 ± 0.015 | 1 ± 0.033 | 0.991 ± 0.029 | 0.994 ± 0.023 | 0.954 ± 0.048
DHRS4 (UniProt Q9BTZ2) | 0.935 ± 0.029 | 0.91 ± 0.029 | 0.96 ± 0.05 | 0.996 ± 0.078 | 0.995 ± 0.048 | 0.995 ± 0.051
SGPP1 (UniProt Q9BX95) | 0.978 ± 0.037 | 0.994 ± 0.033 | 1 ± 0.056 | 1.05 ± 0.05 | 1.04 ± 0.049 | 1.04 ± 0.026
RNF2 (UniProt Q99496) | 1.02 ± 0.023 | 1.06 ± 0.045 | 1.06 ± 0.028 | 1.06 ± 0.025 | 1.1 ± 0.026 | 1.14 ± 0.028
UniProt Q99729-3 | 0.979 ± 0.074 | 1.06 ± 0.06 | 0.959 ± 0.079 | 0.995 ± 0.1 | 0.934 ± 0.068 | 0.99 ± 0.081
UniProt Q9BTA9 and related entries | 1.04 ± 0.018 | 1.11 ± 0.095 | 1.03 ± 0.03 | 1.04 ± 0.024 | 1.04 ± 0.034 | 1.05 ± 0.028
SEC62 (UniProt Q99442) | 0.959 ± 0.058 | 0.955 ± 0.081 | 0.92 ± 0.032 | 0.978 ± 0.083 | 0.962 ± 0.037 | 0.973 ± 0.046
TRIM56 (UniProt Q9BRZ2) | 0.975 ± 0.012 | 0.975 ± 0.056 | 0.967 ± 0.048 | 0.935 ± 0.062 | 0.897 ± 0.072 | 0.927 ± 0.081
PCGF6 (UniProt Q9BYE7) | 1.01 ± 0.022 | 0.997 ± 0.026 | 0.969 ± 0.024 | 0.995 ± 0.02 | 0.986 ± 0.03 | 0.982 ± 0.02
UniProt Q9BZE1 and related entries | 0.951 ± 0.018 | 0.911 ± 0.063 | 0.953 ± 0.049 | 0.946 ± 0.019 | 0.95 ± 0.046 | 0.9434 ± 0.0076
UniProt Q9BWF3 and related entries | 1.08 ± 0.017 | 1.11 ± 0.043 | 1.07 ± 0.094 | 1.01 ± 0.032 | 1 ± 0.023 | 1.04 ± 0.08
UniProt Q99828 and related entries | 1.001 ± 0.0091 | 0.977 ± 0.03 | 0.993 ± 0.035 | 0.9794 ± 0.0058 | 0.949 ± 0.036 | 0.95 ± 0.025
UniProt Q9BQI3 and related entries | 0.946 ± 0.014 | 0.935 ± 0.039 | 1.008 ± 0.0057 | 0.983 ± 0.016 | 0.989 ± 0.018 | 1.01 ± 0.037

A portion from the list above:
Target | NP40-soluble protein abundance (concentration: 1mM) | NP40-soluble protein abundance (concentration: 2mM) | NP40-soluble protein abundance (concentration: 4mM) | NP40-soluble protein abundance (concentration: 6mM) | NP40-soluble protein abundance (concentration: 8mM) | NP40-soluble protein abundance (concentration: 10mM)
SGPP1 (UniProt Q9BX95) | 0.978 ± 0.037 | 0.994 ± 0.033 | 1 ± 0.056 | 1.05 ± 0.05 | 1.04 ± 0.049 | 1.04 ± 0.026
RNF2 (UniProt Q99496) | 1.02 ± 0.023 | 1.06 ± 0.045 | 1.06 ± 0.028 | 1.06 ± 0.025 | 1.1 ± 0.026 | 1.14 ± 0.028
